{"sequences": {"note": "Protein sequences, listed by entry. Tags and fused reporters are not part of them.", "UniProt P01106": "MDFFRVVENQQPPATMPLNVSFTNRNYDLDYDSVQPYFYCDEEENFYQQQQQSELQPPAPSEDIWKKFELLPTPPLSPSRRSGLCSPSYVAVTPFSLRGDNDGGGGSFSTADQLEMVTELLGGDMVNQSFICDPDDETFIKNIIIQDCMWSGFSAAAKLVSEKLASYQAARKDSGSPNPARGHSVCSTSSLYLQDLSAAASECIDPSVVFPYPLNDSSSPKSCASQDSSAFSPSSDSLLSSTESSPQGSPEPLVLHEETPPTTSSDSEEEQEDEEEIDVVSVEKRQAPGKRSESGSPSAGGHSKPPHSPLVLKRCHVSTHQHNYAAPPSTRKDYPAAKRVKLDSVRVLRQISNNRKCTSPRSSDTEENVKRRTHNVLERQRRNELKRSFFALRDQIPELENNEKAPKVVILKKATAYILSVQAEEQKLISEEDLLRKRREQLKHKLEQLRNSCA"}, "source": "patent US20230038996A1", "binders": {"B1": {"name": "EYA Transcriptional Coactivator and Phosphatase 1 (EYA1) (enzyme, human, UniProt Q99502 1-592, looked up)", "chain": "MEMQDLTSPHSRLSGSSESPSGPKLGNSHINSNSMTPNGTEVKTEPMSSSETASTTADGSLNNFSGSAIGSSSFSPRPTHQFSPPQIYPSNRPYPHILPTPSSQTMAAYGQTQFTTGMQQATAYATYPQPGQPYGISSYGALWAGIKTEGGLSQSQSPGQTGFLSYGTSFSTPQPGQAPYSYQMQGSSFTTSSGIYTGNNSLTNSSGFNSSQQDYPSYPSFGQGQYAQYYNSSPYPAHYMTSSNTSPTTPSTNATYQLQEPPSGITSQAVTDPTAEYSTIHSPSTPIKDSDSDRLRRGSDGKSRGRGRRNNNPSPPPDSDLERVFIWDLDETIIVFHSLLTGSYANRYGRDPPTSVSLGLRMEEMIFNLADTHLFFNDLEECDQVHIDDVSSDDNGQDLSTYNFGTDGFPAAATSANLCLATGVRGGVDWMRKLAFRYRRVKEIYNTYKNNVGGLLGPAKREAWLQLRAEIEALTDSWLTLALKALSLIHSRTNCVNILVTTTQLIPALAKVLLYGLGIVFPIENIYSATKIGKESCFERIIQRFGRKVVYVVIGDGVEEEQGAKKHAMPFWRISSHSDLMALHHALELEYL"}}, "target": "MYC (UniProt P01106)", "experiment": "co-immunoprecipitation from glioma stem cell lysates (anti-EYA1 pull-down, immunoblot for c-Myc)", "note": "These are yes or no findings as the source states them, for the method shown. Binding seen in cells or lysates may run through a third protein. Some results given as binding are weak or reduced against the parent protein; the word gives no strength.", "data": [{"binder": "B1", "values": [{"measurement": "binding", "result": "binds"}]}]}
